No constants are given. Whether binding was seen depends on the method and setting. Some entries that bind do so weakly or less than the wild type. Sequences can lack the tags named with a protein.
Target: T1, 食蟹猴CTLA-4-His (cynomolgus monkey) (UniProt G7PL88)
T1 sequence: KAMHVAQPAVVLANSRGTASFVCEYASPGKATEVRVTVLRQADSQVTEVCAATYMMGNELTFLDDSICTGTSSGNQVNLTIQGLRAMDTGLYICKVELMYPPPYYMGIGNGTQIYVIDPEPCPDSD
Assay: ELISA, cynomolgus CTLA-4-His coated

B1: HuC92-11 (antibody, V domains shown)
VH: QVQLVESGGGVVQPGRSLRLSCAASGFTFSNYAMSWVRQAPGKGLEWVAEISYSGTYSYHSDTVTGRFTISRDNSKNTLYLQMSSLRAEDTAVYYCTRRDYDNEMDYWGQGTLVTVSS
VL: DIQMTQSPSSLSASVGDRVTITCRTSQVITNYLNWYQQKPGKAPKLLIYYTSRLHSGVPSRFSGSGSGTDYTLTISSLQPEDFATYYCQQFGKRPPTFGGGTKVEIK
Q: How did the binding turn out when B1 was run?
A: binds

— patent CN115010810A
